Experimental findings from PubChem BioAssay AID1508600 (Functional Genomics Laboratory (NCATS/FGL), 2020) are described below.

Hit rate of the full screen: of about 53,000 sequences, about 3,700 (7%) were called active.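 How the source made its calls: active means gene knockdowns whose robust z-score for IL-1 alpha signal is at least 2 or at most -2, so actives lie on both sides; inactive means the rest.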 The list shows a part of the results.

The experiment can be described thus: Components of the Cytosolic LPS Sensing Pathway: Gene Identification via Genome-wide siRNA Screen.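 Further: robust z of the log signal after scaling to non-targeting control siRNA wells of the plate.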 The note with it: RAW264.7 macrophages, IL-1a HTRF, actives lie on both sides, screened at 100 nM (by protocol), cells primed 5 h with Pam3CSK4 first. In outline: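 RAW264.7; siRNA 100 nM final, RNAiMAX, 48h 37 degrees C; Pam3CSK4 5 h; LipidA + TransIT-TKO 24 h; IL-1a HTRF; CellTiter-Glo viability; robust z vs negative-control median.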
(In TR-FRET formats the signal depends on donor and acceptor labels being close together.)
Turning to GGUGGCAUAUACUUUGCUUTT against Cmtm2a, the z-score is inactive: 0.583.
For the sequence GGUUGCAUUUCUCAAGUAUTT against Olfr19, the z-score was inactive: 0.41.
As to GGAGGUGCAGAAAAUCAUCTT against Mab21l3, the z-score is inactive: 0.258.
Under “GCUGGAUGCAAAUGAUCUUTT against D17H6S56E-5” stands inactive: 0.0271; under GGCUGGAUACUCAGUGCUATT against Abhd16b, active: 6.41.
Turning to CCUGAUCUAAUCCUAAAUGTT against Pgr, the z-score is inactive: -0.171.
On to GGAAUUUCUGCGCACCUAUTT against Ctnnbip1, for which the z-score is inactive: 1.19.
As for GGGACAACCUGGAUGACAUTT against Coq6, the z-score was inactive: -0.0644.
Under GCAGGUGAGAAAGUAUAAGTT against Mro stands inactive: -1.09.
For GGAUCAAAAGGUAAAGAGATT against Rbbp5, the z-score was inactive: 1.63.
Take GCACUUAACAGAGAUACAATT against Cldn12: the z-score was inactive: -0.408.
Under CCAAGAGAUGCUAGCUAAUTT against Platr28 stands inactive: -0.495; under GGAAAACAUCCCUUUCGCATT against Septin1, inactive: 1.04; under GGUAGAAUUGAAUUCAAUCTT against Csrnp3, inactive: -0.812.
As to GGAGACAAAGAAGAGAAAGTT against Ddx24, the z-score is inactive: 0.642.
On to GGUCAAAGUGUGUUAAGUUTT against Tmem209, for which the z-score was inactive: -1.71.
As for GGGCUAUGCAAAUUUACAATT against Poglut2, the z-score is inactive: -0.607.
CCCAAUACAAAUCAGUCUATT against Perm1: the z-score is inactive: 0.86.
To CGGACUAUAUAGAGAGGGATT against Purg belongs inactive: -0.819; to GCACUCUUUCCAAAAUAGUTT against Klf12, inactive: 0.0398; to GGGAAAGUAAUUGAUAAACTT against Mtrr, inactive: 0.59.
In the case of CCUACAUCAGGUCAGCAAGTT against Mrto4, the z-score is inactive: 1.26.
Consider CCAGUAUGAAAGCUUAAAGTT against Ipo13, for which the z-score is inactive: 0.159.
As to GGCUUCCUACCUAAGGCUUTT against Bora, the z-score was inactive: -0.924.
As to GGACAGGCAGCUAACACUATT against Foxk1, the z-score was inactive: 0.221.
As for GGAGUCCACCCUUCAUCUGTT against Rps27a, the z-score is inactive: 0.355.
GCUCCAUGGAAUAAUUAAATT against Gm4425: the z-score is inactive: -0.895.
With GCAUUGUAAGUUGAAAACATT against Rbm43, the z-score was inactive: 1.53.
Turning to GUUAUGGAGCAAUGUCUAUTT against Olfr1248, the z-score is inactive: 0.52.
